Measured data: PubChem BioAssay AID1259254 (NCATS, 2017)

- Screen: 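Genome-wide screen for genes that prevent DNA re-replication in cancer cells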 (primary screen)
- Cell system: human HCT116 colorectal cancer cells
- Reagent: single siRNA against human genes
- Time to read-out: 3 days
- Read-out: 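Nuclei stained with Hoechst and imaged; cell-cycle phase assigned by DNA content; G2 share scaled per plate, non-targeting siRNA 0%, GMNN siRNA 100%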
- Scale: G2 robust z-score and G2 cells, % of GMNN control: higher = more G2 cells, more excess DNA replication; raw share of cells in G2: higher = larger share of cells with G2 DNA content
- Call rule: 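An siRNA counts as active if its G2 robust z-score lies at least 5 MADs above the screen median; here such calls match roughly 38% of GMNN control or more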
The whole screen tested about 59,000 reagents; below is a random part of them. In the full data, about 1,550 (2.6%) got an active call. 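G2 share is only a proxy for re-replication; each gene was hit by three separate siRNAs, and active genes were retested.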 Raw values vary from plate to plate and are shown uncorrected. A number with no mark means an inactive call. Reagents against one gene are numbered here. Not stated in the record: the amount of reagent.

no.	gene	reagent no.	G2 robust z-score	G2 cells, % of GMNN control	raw share of cells in G2 (%)
1	TLX3	1	2.05	17.4	13.8
2	TLX3	2	1.14	11	8.31
3	TLX3	3	-0.2	1.56	4.4
4	SPAG11B	1	-0.329	0.65	5.62
5	SPAG11B	2	0.0396	3.25	5.3
6	SPAG11B	3	-0.531	-0.769	3.12
7	C1orf220	1	-0.752	-2.32	2.97
8	C1orf220	2	0.633	7.42	6.46
9	C1orf220	3	2.95	23.7	14.6
10	TXNDC5	1	-1.2	-5.46	3.16
11	TXNDC5	2	0.27	4.87	5.96
12	TXNDC5	3	3.01	24.1	13.7
13	AUTS2	1	-0.541	-0.841	3
14	AUTS2	2	-0.442	-0.143	4.36
15	AUTS2	3	-0.247	1.23	4.47
16	TINF2	1	1.93	16.6	10.6
17	TINF2	2	0.387	5.69	6.4
18	TINF2	3	0.394	5.74	5.3
19	ZNF239	1	-0.352	0.494	3.69
20	ZNF239	2	-0.414	0.0536	6.01
21	ZNF239	3	-0.0519	2.6	4.43
22	DDX18	1	0.756	8.29	7.67
23	DDX18	2	9.5 (active)	69.8	29.8
24	DDX18	3	0.723	8.05	8.19
25	CYP24A1	1	0.291	5.01	6.75
26	CYP24A1	2	2.86	23.1	13.4
27	CYP24A1	3	-0.25	1.21	4.51
28	DLK1	1	0.586	7.09	8.28
29	DLK1	2	0.542	6.78	6.58
30	DLK1	3	0.00844	3.03	4.42
31	RNASEK	1	-0.965	-3.82	1.82
32	RNASEK	2	5.74 (active)	43.4	20.4
33	RNASEK	3	1.95	16.7	9.76
34	PSMD9	1	3.96	30.8	15.7
35	PSMD9	2	3.22	25.6	16.9
36	PSMD9	3	1.09	10.7	6.98
37	TMEM204	1	-0.594	-1.21	3.94
38	TMEM204	2	0.0847	3.56	5.86
39	TMEM204	3	-0.366	0.39	2.48
40	DNASE2B	1	0.664	7.64	7.05
41	DNASE2B	2	-0.276	1.03	6.07
42	DNASE2B	3	0.732	8.12	7.17
43	GAS6-AS1	1	0.462	6.22	6.03
44	GAS6-AS1	2	1.41	12.9	7.94
45	GAS6-AS1	3	-0.13	2.05	3.39
46	PNMA5	1	1.24	11.7	8.77
47	PNMA5	2	1.66	14.6	7.69
48	PNMA5	3	-0.881	-3.23	0.875
49	TIMCCP1	1	0.193	4.32	4.83
50	TIMCCP1	2	0.543	6.79	5.12
51	TIMCCP1	3	-0.242	1.27	4.12
52	SNRNP40	1	-0.963	-3.81	1.9
53	SNRNP40	2	4.72	36.2	18.9
54	SNRNP40	3	-0.465	-0.303	4.63
55	FAIM	1	1.34	12.4	9.28
56	FAIM	2	1.05	10.4	8.43
57	FAIM	3	1.23	11.6	6.84
58	TCF12	1	0.822	8.75	8.02
59	TCF12	2	-1.04	-4.34	2.7
60	TCF12	3	-0.487	-0.461	4.82
61	ABCC6P1	1	5.85 (active)	44.1	22.5
62	ABCC6P1	2	1.02	10.2	6.92
63	ABCC6P1	3	-0.875	-3.19	1.83
64	KATNAL1	1	0.103	3.69	5.53
65	KATNAL1	2	0.308	5.13	7.57
66	KATNAL1	3	-0.566	-1.02	4.41
67	LOC642947 (retired record)	1	-0.533	-0.786	2.92
68	LOC642947 (retired record)	2	-0.651	-1.61	3.03
69	LOC642947 (retired record)	3	1.51	13.6	8.17
70	CFAP97	1	-0.321	0.712	4.63
71	CFAP97	2	1.32	12.3	10.3
72	CFAP97	3	3.76	29.4	12.3
73	NPAP1	1	2.81	22.7	13
74	NPAP1	2	0.786	8.49	7.62
75	NPAP1	3	-0.843	-2.96	2.26
76	PDZK1	1	1.18	11.3	9.77
77	PDZK1	2	0.602	7.2	7.07
78	PDZK1	3	-0.723	-2.12	2.59
79	CYP4Z1	1	-0.152	1.9	6.86
80	CYP4Z1	2	5.08 (active)	38.7	18.9
81	CYP4Z1	3	0.773	8.41	8.23
82	PWWP2B	1	-0.598	-1.24	3.16
83	PWWP2B	2	0.462	6.22	5.04
84	PWWP2B	3	0.302	5.09	4.37
85	ARRDC1-AS1	1	0.612	7.27	5.28
86	ARRDC1-AS1	2	0.492	6.43	4.96
87	ARRDC1-AS1	3	-0.407	0.102	4.13

Targets above whose target name begins with S or s:
gene	reagent no.	G2 robust z-score	G2 cells, % of GMNN control	raw share of cells in G2 (%)
SPAG11B	1	-0.329	0.65	5.62
SPAG11B	2	0.0396	3.25	5.3
SPAG11B	3	-0.531	-0.769	3.12
SNRNP40	1	-0.963	-3.81	1.9
SNRNP40	2	4.72	36.2	18.9
SNRNP40	3	-0.465	-0.303	4.63
